PubChem BioAssay AID652272 | Drosophila RNAi Screening Center, 2013
Screen: 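Finding fly genes that regulate Hedgehog signal transduction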 (primary screen). Cell system: Drosophila clone 8 (Cl8) cells. Reagent: long dsRNA against Drosophila genes. Measured: 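Plate reader light from a firefly reporter under a ptc promoter fragment that responds to Hedgehog, with Renilla light as transfection reference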. Direction: firefly Hh reporter signal: higher = more ptc reporter light; Renilla reference signal: higher = more Renilla control light. Active means: 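Hit when the z-score averaged over two replicates is under -2 or over +3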. Calls: active = hit: reporter lowered or raised; inactive = not a hit.
The screen tested about 21,000 reagents; shown is an unselected part of those that have a named target and a result. Over the whole deposit, 503 (2.4%) got an active call. 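Raw plate light values, not normalised; calls rest on replicate z-scores that were not deposited; hits include reporter decreases as well as increases.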 A plus sign joins genes that one reagent is predicted to hit. Reagent sequences are not shown. Not stated in the record: the amount of reagent, the time to read-out.

target gene | dsRNA | firefly Hh reporter signal, replicate 1 | firefly Hh reporter signal, replicate 2 | firefly Hh reporter signal, replicate 3 | Renilla reference signal, replicate 1 | Renilla reference signal, replicate 2 | outcome
Tcs6 + PIG-P | DRSC13742 | 43849 | 1.66e5 | – | 11413 | 4628 | inactive
Tcs6 + PIG-P | DRSC14893 | 5.65e5 | 1.27e5 | – | 28448 | 3458 | inactive
tx (taxi) | DRSC16931 | 83213 | 1.02e5 | – | 2051 | 2880 | inactive
RpL14 (Ribosomal protein L14) | DRSC11269 | 12521 | 14613 | – | 4803 | 1971 | active
CG13295 | DRSC09969 | 77072 | 63136 | – | 6564 | 4412 | inactive
slim (scruin like at the midline) | DRSC06921 | 1.09e5 | 79129 | – | 4294 | 3280 | inactive
Tpl94D (Transition protein-like 94D) | DRSC13593 | 53161 | 2.33e5 | – | 10998 | 4608 | inactive
Dap160 (Dynamin associated protein 160) | DRSC01834 | 1.49e5 | 1.95e5 | – | 3560 | 9500 | inactive
Dap160 (Dynamin associated protein 160) | DRSC03313 | 62723 | 86020 | – | 2792 | 3115 | inactive
fdl (fused lobes) | DRSC07279 | 83700 | 53876 | – | 2406 | 4197 | inactive
Gug (Grunge) | DRSC11179 | 42432 | 91056 | – | 5088 | 6100 | inactive
Piezo | DRSC03092 | 87437 | 63634 | – | 3490 | 2764 | inactive
Piezo | DRSC03391 | 77916 | 51351 | – | 2385 | 4112 | inactive
ACXC (Adenylyl cyclase X C) | DRSC00846 | 1.17e5 | 52066 | – | 2966 | 4380 | inactive
Dis3 | DRSC16034 | 93560 | 52754 | – | 4277 | 2667 | inactive
CG31221 | DRSC14335 | 6.19e5 | 96860 | – | 32602 | 2761 | inactive
CG31221 | DRSC16217 | 5.56e5 | 91403 | – | 33488 | 2536 | inactive
CG30148 | DRSC06391 | 5.58e5 | 1.07e5 | – | 4612 | 4612 | inactive
CG5509 | DRSC15822 | 90130 | 1.19e5 | – | 1696 | 6984 | inactive
CG32643 | DRSC18962 | 5.22e5 | 1.34e5 | – | 25334 | 2912 | inactive
CDK2AP1 (CDK2-associated protein 1) | DRSC19800 | 1.37e5 | 1.06e5 | – | 3280 | 2700 | inactive
CG13907 | DRSC08377 | 1.13e5 | 1.14e5 | – | 4800 | 4571 | inactive
mbf1 (multiprotein bridging factor 1) | DRSC11365 | 1.50e5 | 1.13e5 | – | 5500 | 3883 | inactive
l(1)G0289 (lethal (1) G0289) | DRSC18215 | 87565 | 88304 | – | 2128 | 2219 | inactive
Ptp69D (Protein tyrosine phosphatase 69D) | DRSC11258 | 20848 | 67657 | 74860 | 7121 | 5584 | inactive
asRNA:CR31144 + RpL3 | DRSC16834 | 21799 | 51004 | – | 1461 | 2649 | active
CG11406 | DRSC04010 | 1.83e5 | 2.50e5 | – | 3546 | 10349 | inactive
CG11406 | DRSC04108 | 1.10e5 | 64688 | – | 2998 | 5866 | inactive
chk (chaski) | DRSC04994 | 79288 | 35907 | – | 3268 | 1657 | inactive
DCTN3-p24 (Dynactin 3, p24 subunit) | DRSC04592 | 1.17e5 | 56742 | – | 5005 | 2640 | inactive
Dnali1 (Dynein axonemal light intermediate chain 1) | DRSC16158 | 1.53e5 | 87916 | – | 6217 | 4002 | inactive
DIP-theta (Dpr-interacting protein theta) | DRSC00885 | 5.94e5 | 6.73e5 | 2.04e5 | 31749 | 3860 | inactive
DIP-theta (Dpr-interacting protein theta) | DRSC02340 | 85334 | 48555 | – | 2064 | 5165 | inactive
DIP-theta (Dpr-interacting protein theta) | DRSC02341 | 66700 | 47204 | – | 1894 | 5736 | inactive
Srp68 (Signal recognition particle 68) | DRSC10475 | 90252 | 67235 | – | 4170 | 3180 | inactive
Cpsf5 (Cleavage and polyadenylation specific factor 5) | DRSC10374 | 80340 | 46371 | – | 3925 | 1997 | inactive
B-H2 (BarH2) | DRSC19335 | 43595 | 52486 | – | 1142 | 2857 | inactive
Smyd4-4 (SET and MYND domain containing, class 4, member 4) | DRSC05956 | 62369 | 45275 | – | 2905 | 2160 | inactive
Muc30E (Mucin 30E) | DRSC01101 | 6.51e5 | 6.97e5 | 3.02e5 | 31268 | 4833 | inactive
CG18268 + CG3014 | DRSC15319 | 86162 | 97538 | – | 3637 | 2890 | inactive
CG11131 | DRSC11636 | 1.37e5 | 2.07e5 | – | 3654 | 6533 | inactive
beta-PheRS (Phenylalanyl-tRNA synthetase, beta-subunit) | DRSC15859 | 83045 | 76265 | – | 3591 | 3253 | inactive
TpnC41C (Troponin C at 41C) | DRSC04916 | 77307 | 63859 | – | 1705 | 5888 | inactive
Smurf (SMAD specific E3 ubiquitin protein ligase) | DRSC07641 | 82224 | 42599 | – | 2117 | 3045 | inactive
Dfd (Deformed) | DRSC12593 | 71145 | 1.05e5 | – | 2965 | 3472 | inactive
Sik3 (Salt-inducible kinase 3) | DRSC06505 | 1.26e5 | 63696 | – | 3224 | 4560 | inactive
Sik3 (Salt-inducible kinase 3) | DRSC06771 | 88844 | 66214 | – | 4059 | 2586 | inactive
CG12375 | DRSC02163 | 65441 | 60706 | – | 2785 | 2504 | inactive
Coq3 (Coenzyme Q3) | DRSC03168 | 55928 | 74805 | – | 2038 | 2875 | inactive
CNPYb (Canopy b) | DRSC09845 | 69728 | 51099 | – | 3369 | 2178 | inactive
CG9961 | DRSC00738 | 1.11e5 | 83602 | – | 2486 | 2313 | inactive
CG3777 | DRSC18489 | 6.03e5 | 82500 | – | 3997 | 3997 | inactive
Spt20 | DRSC10280 | 44747 | 20051 | 13129 | 2963 | 1067 | inactive
CG9084 | DRSC07335 | 57376 | 36712 | – | 1106 | 2858 | inactive
Gsc (Goosecoid) | DRSC00755 | 97337 | 84517 | – | 2562 | 2058 | inactive
Vps13 (Vacuolar protein sorting 13) | DRSC06817 | 77658 | 27824 | – | 2008 | 2883 | inactive
CG18132 | DRSC00518 | 1.09e5 | 97555 | – | 2512 | 2567 | inactive
